# According to PubChem BioAssay AID272 (DTP/NCI, 2004):
# The list does not hold the whole screen: it is rich in T/C values a quarter to a half above the control, in often repeated tests (any T/C) and in doses without a T/C. Other doses and runs of a compound stand elsewhere. T/C gives the treated animals as a percentage of the vehicle group. Schedules are NCI's codes, taken here to give the interval after Q, in days (D) or hours (H), and the number of doses after X. Some T/C values are followed by the survivors on the day toxicity was checked, most often the fifth; where none is given, no animal had died by that day. Some doses were run more than once; the values are given in rising order. Signs of the kind (2×) stand for listed records that agree. Some entries give survivors of the animals treated and no T/C: the source holds a T/C of zero for them, seemingly a mark for toxic or unscored doses. Some doses without a T/C left all or most animals alive at the check, yet need not have been tolerated: survival well below the control is almost never listed, so the zero probably covers shortened survival too. Counts of survivors are from the toxicity check (mostly the fifth day) where no day follows; animals may have died later. Where survival is the endpoint, the PubChem record calls one and a half times the control and up active, and a quarter to a half above the control has no call in these data; cut-offs in other NCI protocols can differ.
# Tested on: Lewis lung carcinoma i.m., BDF1 mice, T/C %
# Assay: NCI In Vivo Anticancer Drug Screen. Data for tumor model Lewis Lung Carcinoma (intramuscular) in B6D2F1 (BDF1) mice
# Conditions: vehicle: saline
# Method in brief: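 Antitumour activity is assessed in transplanted-tumour mice. Endpoint is survival or tumour size, normalised to vehicle-dosed controls (T/C).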
smiles,measurement,setting,value
O=P1(N(CCCl)CCCl)NCCCO1 (configuration not stated),T/C,"T/C endpoint: mean tumor weight (est.), dose: 65.0 mg/kg/injection, schedule: Q01DX001 (ip), evaluated on day 12, higher T/C = larger tumour","7, 9, 19, 24 (2×), 26, 27, 29 [7 of 8 alive], 32, 36 [6 of 8 alive], 37, 38 [7 of 8 alive], 39, 40 [6 of 8 alive], 42, 47, 48 (2×), 49, 54, 56 % of control [7 of 8 alive]"
same,T/C,"T/C endpoint: mean tumor weight (est.), dose: 108.0 mg/kg/injection, schedule: Q01DX001 (ip), evaluated on day 12, higher T/C = larger tumour","4, 4 [7 of 8 alive], 7, 10 (4×), 10 [7 of 8 alive], 13, 14 (2×), 15, 15 [7 of 8 alive], 20 [7 of 8 alive], 29, 35 % of control"
same,survivor count,"T/C endpoint: mean tumor weight (est.), dose: 108.0 mg/kg/injection, schedule: Q01DX001 (ip), higher T/C = larger tumour",3 of 8 and 4 of 8
same,T/C,"T/C endpoint: mean tumor weight (est.), dose: 180.0 mg/kg/injection, schedule: Q01DX001 (ip), evaluated on day 12, higher T/C = larger tumour",17 % of control [6 of 8 alive]
same,survivor count,"T/C endpoint: mean tumor weight (est.), dose: 180.0 mg/kg/injection, schedule: Q01DX001 (ip), higher T/C = larger tumour","1 of 8, 3 of 8, 5 of 8"
same,T/C,"T/C endpoint: mean tumor weight, dose: 65.0 mg/kg/injection, schedule: Q01DX001 (ip), evaluated on day 12, higher T/C = larger tumour","21, 35, 50, 55, 66 % of control"
same,T/C,"T/C endpoint: mean tumor weight, dose: 108.0 mg/kg/injection, schedule: Q01DX001 (ip), evaluated on day 12, higher T/C = larger tumour","8, 13 [7 of 8 alive], 30, 42 % of control"
same,survivor count,"T/C endpoint: mean tumor weight, dose: 180.0 mg/kg/injection, schedule: Q01DX001 (ip), higher T/C = larger tumour",3 of 8
same,T/C,"T/C endpoint: median survival time, dose: 23.0 mg/kg/injection, schedule: Q08DX003 (sc), higher T/C = longer survival",144 % of control
same,T/C,"T/C endpoint: median survival time, dose: 25.0 mg/kg/injection, schedule: Q03DX010 (ip), evaluated on day 9, higher T/C = longer survival",121 % of control
same,T/C,"T/C endpoint: median survival time, dose: 25.0 mg/kg/injection, schedule: Q03DX010 (ip), evaluated on day 13, higher T/C = longer survival",107 % of control
same,T/C,"T/C endpoint: median survival time, dose: 25.0 mg/kg/injection, schedule: Q03DX010 (ip), evaluated on day 60, higher T/C = longer survival",108 % of control
same,T/C,"T/C endpoint: median survival time, dose: 25.0 mg/kg/injection, schedule: Q03DX010 (ip), evaluated on day 93, higher T/C = longer survival",121 % of control
same,T/C,"T/C endpoint: median survival time, dose: 31.0 mg/kg/injection, schedule: Q01DX007 (sc), evaluated on day 14, higher T/C = longer survival",135 % of control
same,T/C,"T/C endpoint: median survival time, dose: 31.0 mg/kg/injection, schedule: Q01DX007 (sc), evaluated on day 62, higher T/C = longer survival",136 % of control
same,T/C,"T/C endpoint: median survival time, dose: 50.0 mg/kg/injection, schedule: Q01DX001 (ip), evaluated on day 9, higher T/C = longer survival",130 % of control
same,T/C,"T/C endpoint: median survival time, dose: 50.0 mg/kg/injection, schedule: Q01DX001 (ip), evaluated on day 13, higher T/C = longer survival",136 % of control
same,T/C,"T/C endpoint: median survival time, dose: 50.0 mg/kg/injection, schedule: Q01DX001 (ip), evaluated on day 60, higher T/C = longer survival",136 % of control
same,T/C,"T/C endpoint: median survival time, dose: 50.0 mg/kg/injection, schedule: Q01DX001 (ip), evaluated on day 93, higher T/C = longer survival",130 % of control
same,T/C,"T/C endpoint: median survival time, dose: 50.0 mg/kg/injection, schedule: Q03DX010 (ip), evaluated on day 9, higher T/C = longer survival",85 % of control
same,T/C,"T/C endpoint: median survival time, dose: 50.0 mg/kg/injection, schedule: Q03DX010 (ip), evaluated on day 13, higher T/C = longer survival",79 % of control
same,survivor count,"T/C endpoint: median survival time, dose: 50.0 mg/kg/injection, schedule: Q03DX010 (ip), higher T/C = longer survival",6 of 8 and 8 of 8
same,T/C,"T/C endpoint: median survival time, dose: 50.0 mg/kg/injection, schedule: Q14DX002 (ip), evaluated on day 13, higher T/C = longer survival",145 % of control
same,T/C,"T/C endpoint: median survival time, dose: 50.0 mg/kg/injection, schedule: Q14DX002 (ip), evaluated on day 60, higher T/C = longer survival",145 % of control
same,T/C,"T/C endpoint: median survival time, dose: 65.0 mg/kg/injection, schedule: Q01DX001 (ip), evaluated on day 10, higher T/C = longer survival",145 % of control
same,T/C,"T/C endpoint: median survival time, dose: 65.0 mg/kg/injection, schedule: Q01DX001 (ip), evaluated on day 12, higher T/C = longer survival",136 % of control
same,T/C,"T/C endpoint: median survival time, dose: 65.0 mg/kg/injection, schedule: Q01DX001 (ip), evaluated on day 36, higher T/C = longer survival",93 % of control
same,T/C,"T/C endpoint: median survival time, dose: 65.0 mg/kg/injection, schedule: Q01DX001 (ip), evaluated on day 38, higher T/C = longer survival",131 % of control
same,T/C,"T/C endpoint: median survival time, dose: 65.0 mg/kg/injection, schedule: Q01DX001 (ip), evaluated on day 40, higher T/C = longer survival","86, 121, 131 % of control"
same,T/C,"T/C endpoint: median survival time, dose: 65.0 mg/kg/injection, schedule: Q01DX001 (ip), evaluated on day 41, higher T/C = longer survival",114 and 155 % of control
same,T/C,"T/C endpoint: median survival time, dose: 65.0 mg/kg/injection, schedule: Q01DX001 (ip), evaluated on day 42, higher T/C = longer survival","87 [6 of 8 alive], 96 [7 of 8 alive], 98, 108, 109 [7 of 8 alive], 144 % of control"
same,T/C,"T/C endpoint: median survival time, dose: 65.0 mg/kg/injection, schedule: Q01DX001 (ip), evaluated on day 43, higher T/C = longer survival",91 % of control
same,T/C,"T/C endpoint: median survival time, dose: 65.0 mg/kg/injection, schedule: Q01DX001 (ip), evaluated on day 47, higher T/C = longer survival","101 [7 of 8 alive], 105, 117, 121, 123, 125, 127 (2×), 152 % of control"
same,T/C,"T/C endpoint: median survival time, dose: 65.0 mg/kg/injection, schedule: Q01DX001 (ip), evaluated on day 50, higher T/C = longer survival","121, 122, 124, 136 (2×), 139 % of control"
same,T/C,"T/C endpoint: median survival time, dose: 65.0 mg/kg/injection, schedule: Q01DX001 (ip), evaluated on day 62, higher T/C = longer survival",145 % of control
same,T/C,"T/C endpoint: median survival time, dose: 65.0 mg/kg/injection, schedule: Q01DX001 (ip), evaluated on day 66, higher T/C = longer survival",178 % of control
same,T/C,"T/C endpoint: median survival time, dose: 65.0 mg/kg/injection, schedule: Q01DX001 (sc), higher T/C = longer survival",127 % of control
same,T/C,"T/C endpoint: median survival time, dose: 65.0 mg/kg/injection, schedule: Q01DX011 (ip), evaluated on day 42, higher T/C = longer survival","116, 120, 124 % of control"
same,T/C,"T/C endpoint: median survival time, dose: 65.0 mg/kg/injection, schedule: Q01DX011 (ip), evaluated on day 47, higher T/C = longer survival",112 % of control
same,T/C,"T/C endpoint: median survival time, dose: 65.0 mg/kg/injection, schedule: Q08DX003 (ip), higher T/C = longer survival",127 % of control [7 of 8 alive]
same,survivor count,"T/C endpoint: median survival time, dose: 86.0 mg/kg/injection, schedule: Q01DX007 (sc), higher T/C = longer survival",5 of 8
same,T/C,"T/C endpoint: median survival time, dose: 100.0 mg/kg/injection, schedule: Q01DX001 (ip), evaluated on day 9, higher T/C = longer survival",403 % of control
